Source: patent US20240132571A1 (MEDPACTO, published 2024)

Tests used:
[1] = biological target: integrin αv in which 3HA is tagged at the C-terminus; experiment: immunoprecipitation
[2] = biological target: integrin β3 in which 3HA is tagged at the C-terminus; experiment: immunoprecipitation
[3] = biological target: integrin αv in which 3HA is tagged at the C-terminus; experiment: immunoprecipitation after overexpression in 293T or Raw 264.7 cells
[4] = biological target: integrin β3 in which 3HA is tagged at the C-terminus; experiment: as above
[5] = biological target: DC-Stamp tagged with 3Flag in N-terminus; experiment: immunoprecipitation (FIG. 12I)
[6] = biological target: Siglec-15 tagged with 3Flag in C-terminus; experiment: immunoprecipitation (FIG. 12I)
[7] = biological target: DC-Stamp tagged with 3Flag in N-terminus; experiment: immunoprecipitation, 293T cells
[8] = biological target: Siglec-15 tagged with 3Flag in C-terminus; experiment: immunoprecipitation, 293T cells

Measured: binding

B1: wild-type TM4SF19 in which 3Flag was tagged at the N-terminus (human TM4SF19) (other)
chain: MVSSPCTQASSRTCSRILGLSLGTAALFAAGANVALLLPNWDVTYLLRGLLGRHAMLGTGLWGGGLMVLTAAILISLMGWRYGCFSKSGLCRSVLTALLSGGLALLGALICFVTSGVALKDGPFCMFDVSSFNQTQAWKYGYPFKDLHSRNYLYDRSLWNSVCLEPSAAVVWHVSLFSALLCISLLQLLLVVVHVINSLLGLFCSLCEK
notes: Overexpressed in 293T cells (for the integrins: 293T or Raw 264.7 cells) and tested by immunoprecipitation; also called 3Flag-hTM4SF19; TM4SF19 wt; not shown: 3Flag tag at the N-terminus
binds: [1] | [2] | [3] | [4]

B2: TM4SF19 in which 3HA was tagged at the N-terminus (human TM4SF19, NP_612470.2 isoform 1) (protein, not shown: small tags and cut ends)
chain: B1 chain
binds: [5] | [6] | [7] | [8]

These are yes or no findings as the source states them, for the method shown. Binding calls can cover weak binding; strength is not graded here. Where a sequence is shown, tags or fusion partners need not be part of it.
